No constants are given. Whether binding was seen depends on the method and setting. In cells and extracts the contact can be indirect. These calls come from enrichment with a bait or labelling near it, and not all partners need be listed. Sequences can lack the tags named with a protein.
B1: ASK21, endogenous (protein, UniProt Q8LF97 1-351)
chain: MSEGEMAIIKPEMMKSYIWLETADGSIQQVEQEVAMFCPMICQEVIQKGVGSSKNYAISLPQRVNPAMLSLIFDYCRFHQVPGRSNKERKVYDEKFIRMDTKRLCELTSAADSLQLKPLVDLTSRALARIIEGKTPEEIREIFHLPDDLTEEEKLEPLKNTMDDPRIRLLNRLYAKKRKELKEREKLKSVEVEEHVDERSVDDLLSFINGRDPKVVKTSKSKKKNKKRKEQKNGSSNGTCEALEKDLHNLDSKSQSAEIVDNTASCLGDVSNLPSMEDDIFTPKTEFEDGYIDDEIDPALKELLDREVEDFARRLNSSWVLSIGQERQPVNFSINGNGTSRRLTGPAAGHK
B2: AGO5, endogenous (protein, UniProt Q9SJK3 1-997)
chain: MSNRGGGGHGGASRGRGGGRRSDQRQDQSSGQVAWPGLQQSYGGRGGSVSAGRGRGNVGRGENTGDLTATQVPVASAVSGGRGRGNIGDPTFSVASSSKTVSVASSSKEESKNTEVSETMSNLQITSTETKPEMTSLPPASSKAVTFPVRPGRGTLGKKVMVRANHFLVQVADRDLYHYDVSINPEVISKTVNRNVMKLLVKNYKDSHLGGKSPAYDGRKSLYTAGPLPFDSKEFVVNLAEKRADGSSGKDRPFKVAVKNVTSTDLYQLQQFLDRKQREAPYDTIQVLDVVLRDKPSNDYVSVGRSFFHTSLGKDARDGRGELGDGIEYWRGYFQSLRLTQMGLSLNIDVSARSFYEPIVVTDFISKFLNIRDLNRPLRDSDRLKVKKVLRTLKVKLLHWNGTKSAKISGISSLPIRELRFTLEDKSEKTVVQYFAEKYNYRVKYQALPAIQTGSDTRPVYLPMELCQIDEGQRYTKRLNEKQVTALLKATCQRPPDRENSIKNLVVKNNYNDDLSKEFGMSVTTQLASIEARVLPPPMLKYHDSGKEKMVNPRLGQWNMIDKKMVNGAKVTSWTCVSFSTRIDRGLPQEFCKQLIGMCVSKGMEFKPQPAIPFISCPPEHIEEALLDIHKRAPGLQLLIVILPDVTGSYGKIKRICETELGIVSQCCQPRQVNKLNKQYMENVALKINVKTGGRNTVLNDAIRRNIPLITDRPTIIMGADVTHPQPGEDSSPSIAAVVASMDWPEINKYRGLVSAQAHREEIIQDLYKLVQDPQRGLVHSGLIREHFIAFRRATGQIPQRIIFYRDGVSEGQFSQVLLHEMTAIRKACNSLQENYVPRVTFVIVQKRHHTRLFPEQHGNRDMTDKSGNIQPGTVVDTKICHPNEFDFYLNSHAGIQGTSRPAHYHVLLDENGFTADQLQMLTNNLCYTYARCTKSVSIVPPAYYAHLAAFRARYYMESEMSDGGSSRSRSSTTGVGQVISQLPAIKDNVKEVMFYC
B3: AGO10, endogenous (protein, UniProt Q9XGW1 1-988)
chain: MPIRQMKDSSETHLVIKTQPLKHHNPKTVQNGKIPPPSPSPVTVTTPATVTQSQASSPSPPSKNRSRRRNRGGRKSDQGDVCMRPSSRPRKPPPPSQTTSSAVSVATAGEIVAVNHQMQMGVRKNSNFAPRPGFGTLGTKCIVKANHFLADLPTKDLNQYDVTITPEVSSKSVNRAIIAELVRLYKESDLGRRLPAYDGRKSLYTAGELPFTWKEFSVKIVDEDDGIINGPKRERSYKVAIKFVARANMHHLGEFLAGKRADCPQEAVQILDIVLRELSVKRFCPVGRSFFSPDIKTPQRLGEGLESWCGFYQSIRPTQMGLSLNIDMASAAFIEPLPVIEFVAQLLGKDVLSKPLSDSDRVKIKKGLRGVKVEVTHRANVRRKYRVAGLTTQPTRELMFPVDENCTMKSVIEYFQEMYGFTIQHTHLPCLQVGNQKKASYLPMEACKIVEGQRYTKRLNEKQITALLKVTCQRPRDRENDILRTVQHNAYDQDPYAKEFGMNISEKLASVEARILPAPWLKYHENGKEKDCLPQVGQWNMMNKKMINGMTVSRWACVNFSRSVQENVARGFCNELGQMCEVSGMEFNPEPVIPIYSARPDQVEKALKHVYHTSMNKTKGKELELLLAILPDNNGSLYGDLKRICETELGLISQCCLTKHVFKISKQYLANVSLKINVKMGGRNTVLVDAISCRIPLVSDIPTIIFGADVTHPENGEESSPSIAAVVASQDWPEVTKYAGLVCAQAHRQELIQDLYKTWQDPVRGTVSGGMIRDLLISFRKATGQKPLRIIFYRDGVSEGQFYQVLLYELDAIRKACASLEPNYQPPVTFIVVQKRHHTRLFANNHRDKNSTDRSGNILPGTVVDTKICHPTEFDFYLCSHAGIQGTSRPAHYHVLWDENNFTADGIQSLTNNLCYTYARCTRSVSIVPPAYYAHLAAFRARFYLEPEIMQDNGSPGKKNTKTTTVGDVGVKPLPALKENVKRVMFYC
B4: DNAJ homologue J3, endogenous (protein, UniProt Q94AW8 1-420)
chain: MFGRGPSKKSDNTKFYEILGVPKSASPEDLKKAYKKAAIKNHPDKGGDPEKFKELAQAYEVLSDPEKREIYDQYGEDALKEGMGGGGGGHDPFDIFSSFFGGGPFGGNTSRQRRQRRGEDVVHPLKVSLEDVYLGTMKKLSLSRNALCSKCNGKGSKSGASLKCGGCQGSGMKVSIRQLGPGMIQQMQHACNECKGTGETINDRDRCPQCKGDKVIPEKKVLEVNVEKGMQHSQKITFEGQADEAPDTVTGDIVFVLQQKEHPKFKRKGEDLFVEHTLSLTEALCGFQFVLTHLDGRSLLIKSNPGEVVKPDSYKAISDEGMPIYQRPFMKGKLYIHFTVEFPDSLSPDQTKALEAVLPKPSTAQLSDMEIDECEETTLHDVNIEDEMRRKAQAQREAYDDDDEDDDHPGGAQRVQCAQQ
B5: ASK20, endogenous (protein, UniProt A8MQG7 1-352)
chain: MSEGDLAVMKPETMKSYIWLQTADGSIQQVEQEVAMFCPMICQEVIQKGVGSSKNHAISLPQRVNPAMFSLILDYCRFHQLPGRSNKERKTYDERFIRMDTKRLCELTSAADSLQLKPLVDLTSRALARIIEGKNPEEIREIFHLPDDLTEEEKLEPLKNSMDDPRIRLLNRLYAKKRKELKERERLKNVEVEEHVDERSVDDLLSFINGRDHKAVKMSKGKKKKKKKKDQKIVSSNNIHDKESHDLRSKQQCVEEIGSSMREVPNLLSAEDDISTPNAGSEDEDIDDEIDPAMRELLDREVEDFAQRLNSNWVRSLGKERRPVHFSINGNGTTRRHTGMVSIWRPCMFTLF

Chains of the proteins cited; added tags and fusions are not shown.
UniProt Q39255: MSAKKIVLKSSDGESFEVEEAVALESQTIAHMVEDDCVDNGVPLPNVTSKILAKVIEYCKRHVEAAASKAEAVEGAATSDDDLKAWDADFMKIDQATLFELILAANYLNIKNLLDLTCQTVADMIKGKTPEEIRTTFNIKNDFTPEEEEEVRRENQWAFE
UniProt Q94AH6: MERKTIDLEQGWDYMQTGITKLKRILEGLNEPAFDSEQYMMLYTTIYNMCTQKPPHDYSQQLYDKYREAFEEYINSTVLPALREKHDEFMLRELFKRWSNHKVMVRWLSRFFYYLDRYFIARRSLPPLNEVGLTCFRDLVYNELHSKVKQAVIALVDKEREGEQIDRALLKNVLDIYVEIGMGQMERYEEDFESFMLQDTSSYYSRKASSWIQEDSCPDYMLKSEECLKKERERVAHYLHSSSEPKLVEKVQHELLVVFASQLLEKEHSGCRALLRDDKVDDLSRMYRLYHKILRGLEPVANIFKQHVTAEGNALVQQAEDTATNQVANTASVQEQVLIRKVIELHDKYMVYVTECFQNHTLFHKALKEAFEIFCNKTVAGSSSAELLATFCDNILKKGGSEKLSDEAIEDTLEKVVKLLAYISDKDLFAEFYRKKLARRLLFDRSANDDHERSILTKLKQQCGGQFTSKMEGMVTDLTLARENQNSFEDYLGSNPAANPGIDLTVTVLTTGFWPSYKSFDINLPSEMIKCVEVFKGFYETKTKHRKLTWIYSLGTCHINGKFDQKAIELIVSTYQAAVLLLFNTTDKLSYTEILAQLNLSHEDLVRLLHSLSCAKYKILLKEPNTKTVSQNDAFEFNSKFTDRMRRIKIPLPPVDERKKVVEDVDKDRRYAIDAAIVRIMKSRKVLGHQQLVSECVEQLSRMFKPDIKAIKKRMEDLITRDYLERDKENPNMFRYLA

Molecular target: T1, 3HA-FBW2 (3x HA epitope at the N-terminus of the F-box protein FBW2) (Arabidopsis thaliana) (UniProt Q9ZPE4)
T1 sequence: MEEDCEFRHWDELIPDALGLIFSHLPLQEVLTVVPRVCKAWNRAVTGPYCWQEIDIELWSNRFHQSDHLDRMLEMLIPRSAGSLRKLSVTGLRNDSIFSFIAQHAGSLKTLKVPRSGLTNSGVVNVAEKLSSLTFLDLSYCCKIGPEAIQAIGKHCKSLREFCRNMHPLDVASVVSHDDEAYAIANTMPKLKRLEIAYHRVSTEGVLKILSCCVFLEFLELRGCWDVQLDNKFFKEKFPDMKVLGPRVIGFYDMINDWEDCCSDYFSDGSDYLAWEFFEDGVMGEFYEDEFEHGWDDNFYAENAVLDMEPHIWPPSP
Test: affinity purification with mass spectrometry

binding, binds:
ASK1 (Skp1-like protein 1), endogenous (from UniProt Q39255 1-160)
CDC48B, endogenous
CDC48C, endogenous
CUL-like protein1, endogenous
CULLIN1 (CUL1), endogenous (from UniProt Q94AH6 1-738)
DNAJ homologue J2, endogenous
Hsp70, endogenous
Hsp80, endogenous
Hsp90, endogenous
RUB1, endogenous
B1
B2
B3
B4
B5
